{
  "source": "paper PMC12362587",
  "about": "“Untargeted Diversity-Oriented Synthesis for the Discovery of New Antitumor Agents: An Integrated Approach of Inverse Virtual Screening, Bioinformatics, and Omics for Target Deconvolution” (Journal of Medicinal Chemistry, 2025)",
  "key": {"A375 cells [1]": {"tested_on": "A375 cells", "experiment": "Untargeted metabolomics", "assay_type": "cell-based, human", "details": "A375, 2.5 μM, 72 h; p-value < 0.05 and FC > ±2"}, "A375 cells [2]": {"tested_on": "A375 cells", "experiment": "Untargeted lipidomics", "assay_type": "cell-based, human", "details": "A375, 2.5 μM, 72 h, vs ctrl"}},
  "data": [
    {"smiles": "CC(C)C[C@H]1C(=O)N(Cc2ccc(C(F)(F)F)cc2)c2ccccc2C(=O)N1Cc1ccc(C(F)(F)F)cc1", "note": "[Compound 31, (S)-3-Isobutyl-1,4-bis(4-(trifluoromethyl)benzyl)-3,4-dihydro-1H-benzo[e][1,4]diazepine-2,5-dione]", "values": [
      {"measurement": "number of differentially abundant metabolites", "setting": "A375 cells [1]", "result": 47},
      {"measurement": "number of differentially modulated lipids", "setting": "A375 cells [2]", "result": 49}
    ]},
    {"smiles": "CC(C)C[C@@H](C(=O)OCc1ccccc1)N1Cc2ccccc2NC1=O", "note": "[Compound 63, Benzyl (S)-4-Methyl-2-(2-oxo-1,4-dihydroquinazolin-3(2H)-yl)pentanoate]", "values": [
      {"measurement": "number of differentially abundant metabolites", "setting": "A375 cells [1]", "result": 23},
      {"measurement": "number of differentially modulated lipids", "setting": "A375 cells [2]", "result": 74}
    ]}
  ]
}
